Earlier results in patent US8361796B2, “Method for generating primate cardiovascular progenitor cells for clinical use from primate embryonic stem cells or embryonic-like state cells, and their applications” (Assistance Publique—Hopitaux de Paris, priority 2008, dated 2013).
At least one compound was matched to its structure with a doubt left.

System: PDGFR
Details: biochemical and cellular assays; cited from earlier work

In the case of CCN(CC)CCNC(=O)c1c(C)[nH]c(/C=C2\C(=O)Nc3ccc(F)cc32)c1C [Sunitinib, N-[2-(diethylamino)ethyl]-5-[(Z)-(5-fluoro-1,2-dihydro-2-oxo-3H-indol-3-ylidine)methyl]-2,4-dimethyl-1H-pyrrole-3-carboxamide], the “inhibition of PDGFR” value is given as “potent inhibitor”.
